Data from PubChem BioAssay AID2417 (National Center for Advancing Translational Sciences (NCATS), 2010).
The whole screen tested about 140,000 compounds, of which about 4,300 (3.1%) were called active. The shares of active, inactive and inconclusive entries below differ from those in the screen.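 Rule for the calls: active = readout at or below -70, meaning at least 70% loss of cells showing the perinucleolar compartment, a nuclear body marking cancer cells; inconclusive = readout between -30 and a set limit; inactive = the rest.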

Experiment: High Content Assay for Compounds that inhibit the Assembly of the Perinucleolar Compartment;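 note: plate controls were DMSO wells for no effect and camptothecin positive control wells for full effect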
Conditions: PC3M PTB-GFP, PNC prevalence imaging, 16 h; at 10 µM; active compounds read low
Summary of the method: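 Compounds are pinned in duplicate onto adhered PC3M cells stably expressing GFP-tagged PTB and incubated 16 h at 37 C. Cells are then fixed, nuclei stained with Hoechst, and PNC-positive cells counted.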
With `COCCCNC(=S)NC(=O)c1ccc([N+](=O)[O-])cc1` the activity change (PNC), negative = inhibition was inconclusive: -76.3%. In the case of `CCOc1cc(C)c(Cl)cc1S(=O)(=O)N(C)C`, the activity change (PNC), negative = inhibition was inconclusive: -45.4%. For `O=C(CCS(=O)(=O)c1cc(Br)cc2c1N(C(=O)C1CC1)CC2)NCC1CCCO1` (stereo not given), the activity change (PNC), negative = inhibition was inconclusive: -43.3%. For `CN(C)c1ccc(/C=N/n2c(COc3ccccc3)n[nH]c2=S)cc1`, the activity change (PNC), negative = inhibition was inactive: -1.16%. For `O=C(N/N=C/c1cccc([N+](=O)[O-])c1)C1CC(=O)N(c2ccc(F)cc2)C1` (stereo not given), the activity change (PNC), negative = inhibition was inactive: -23.9%. For `Cc1ccc(C)c(C(=O)COC(=O)CCCC(=O)Nc2cc(C(F)(F)F)ccc2Cl)c1`, the activity change (PNC), negative = inhibition was inconclusive: -47.6%. With `O=C1c2ccccc2S(=O)(=O)N1CCOc1ccc(F)cc1` the activity change (PNC), negative = inhibition was inactive: -15%. In the case of `Cc1ccc(-c2csc3n[nH]c(=S)n23)cc1`, the activity change (PNC), negative = inhibition was inconclusive: -49.4%. In the case of `Cc1cc(C)n2nc(SCCC(=O)NCCc3ccccc3)nc2n1`, the activity change (PNC), negative = inhibition was inactive: 36.3%. For `Cc1nn(C)c(-c2n[nH]c(=S)n2Cc2ccco2)c1Cl`, the activity change (PNC), negative = inhibition was inconclusive: -49%. For `Cc1cc(=O)n2nc(N3CCCC(C(=O)N4CCc5ccccc54)C3)sc2n1` (stereo not given), the activity change (PNC), negative = inhibition was inconclusive: -55.5%. For `COC(=O)Cn1c(=NC(=O)c2sc3ccccc3c2Cl)sc2cc(S(N)(=O)=O)ccc21`, the activity change (PNC), negative = inhibition was inactive: 25%. With `COc1ccc(C2=NOC(C(=O)N3CCN(c4ccccc4OC)CC3)C2)cc1` (stereo not given) the activity change (PNC), negative = inhibition was inconclusive: -52.1%. For `NC(=O)N/N=C/c1ccccc1OCC(=O)NCc1ccccc1`, the activity change (PNC), negative = inhibition was inconclusive: -46.7%. In the case of `CCn1c(C)cc(/C=C2/SC(=S)NC2=O)c1C`, the activity change (PNC), negative = inhibition was inactive: -22%. In the case of `COc1ccc(C2C3=C(N=C4SCC(=O)N42)c2ccccc2CC3)cc1OC` (stereo not given), the activity change (PNC), negative = inhibition was inconclusive: -67.4%. For `Cc1[nH]n(-c2ccccc2)c(=O)c1C(C[N+](=O)[O-])c1ccccc1Cl` (stereo not given), the activity change (PNC), negative = inhibition was inactive: 35.4%. For `Cn1c(SCC(=O)Nc2ccc3cn[nH]c3c2)nnc1-c1cnccn1`, the activity change (PNC), negative = inhibition was active: -100%. For `O=C(Cn1c(NCCCO)nc2ccccc21)c1cccc(Br)c1`, the activity change (PNC), negative = inhibition was inactive: 27.2%. In the case of `CCSc1nc(O)c(Cc2ccccc2)c(=O)[nH]1`, the activity change (PNC), negative = inhibition was inactive: -6.81%. With `Cc1ccc(CNC(=O)CO/N=C/c2ccc3c(c2)OCO3)cc1` the activity change (PNC), negative = inhibition was inconclusive: -33.9%. With `COc1ccc(C(=O)NCc2ccc3c(c2)OCO3)cc1S(=O)(=O)N(C)Cc1ccccc1` the activity change (PNC), negative = inhibition was inconclusive: -30.7%. With `N/C(=N\OC(=O)Cc1ccc(-c2ccccc2)cc1)c1ccccn1` the activity change (PNC), negative = inhibition was inconclusive: -47.9%. For `Cc1nc(Oc2ccccc2)c2ccccc2n1`, the activity change (PNC), negative = inhibition was inconclusive: -32.4%. With `COc1ccc(C2C(C(=O)NCc3cccnc3)c3ccccc3C(=O)N2C)cc1OC` (stereo not given) the activity change (PNC), negative = inhibition was inconclusive: -32%. With `COc1ccccc1/C=C/C(=O)Nc1ccc2c(c1)CCC2` the activity change (PNC), negative = inhibition was inactive: -6.59%. In the case of `C/C(=N\Nc1ccc([N+](=O)[O-])cc1[N+](=O)[O-])C(C)(C)C(C(=O)O)C(=O)O`, the activity change (PNC), negative = inhibition was inactive: 51.9%. With `Cc1ccnc(NC(=O)C2(c3cccs3)CCOCC2)c1` the activity change (PNC), negative = inhibition was inconclusive: -74.1%. For `O=C(c1ccco1)N1CCN(C(c2ccccc2Cl)c2nnnn2Cc2cccs2)CC1` (stereo not given), the activity change (PNC), negative = inhibition was inactive: -27.2%. For `O=C(Oc1csc(=S)n1C(=O)c1ccccc1)c1ccccc1`, the activity change (PNC), negative = inhibition was inactive: 4.74%. For `O=C(COC(=O)c1cccs1)c1ccc2ccccc2c1`, the activity change (PNC), negative = inhibition was inconclusive: -33.9%. In the case of `COc1ccccc1N1CCN(Cc2ccc(OC)c3ccccc23)CC1`, the activity change (PNC), negative = inhibition was active: -100%. In the case of `NNC(=O)c1ccc(COc2ccc3c(c2)CCC3)o1`, the activity change (PNC), negative = inhibition was inactive: 2.01%. For `CN(Cc1ccccc1)c1ccc2nnc(-c3ccccc3)n2n1`, the activity change (PNC), negative = inhibition was inactive: 44.6%. With `O=C(NC(NC(=S)Nc1ccc(Cl)c(Cl)c1)C(Cl)(Cl)Cl)c1ccco1` (stereo not given) the activity change (PNC), negative = inhibition was inactive: 5.61%. With `CN(C)S(=O)(=O)CC12CCC(CC1=O)C2(C)C` (stereo not given) the activity change (PNC), negative = inhibition was inconclusive: -74.8%. In the case of `CCC(C)NCCCOc1c(C)cc(C)cc1Br` (stereo not given), the activity change (PNC), negative = inhibition was inconclusive: -37.4%. With `c1ccc(-n2nc3c(ccc4cnnc43)[nH]2)cc1` the activity change (PNC), negative = inhibition was inconclusive: -30.8%. For `CCOc1ccc(NC(=O)CN(C)c2nnnn2-c2ccccc2)cc1OCC`, the activity change (PNC), negative = inhibition was inactive: 5.52%. For `CC(C)(C)C(=O)NC1CCN(S(C)(=O)=O)CC1`, the activity change (PNC), negative = inhibition was active: -100%. In the case of `CNC(=O)c1sc(-c2cccnc2)nc1C`, the activity change (PNC), negative = inhibition was inactive: 55.6%. In the case of `CCCNC(=O)CSc1nnc(-c2ccccc2Br)n1-c1cccc(C(F)(F)F)c1`, the activity change (PNC), negative = inhibition was inconclusive: -46.8%. With `O=C(CSc1nc(-c2ccccc2)cc(=O)[nH]1)N1CCOCC1` the activity change (PNC), negative = inhibition was inconclusive: -54.8%. With `CCCn1c(C(O)c2ccc3c(c2)OCO3)nc2ccccc21` (stereo not given) the activity change (PNC), negative = inhibition was active: -100%. In the case of `COC(=O)N/N=C/c1cn(CC(C)COc2ccccc2)c2ccccc12` (stereo not given), the activity change (PNC), negative = inhibition was inconclusive: -63.1%. With `CCN(CC)c1ccc(NC(=O)CCCCCN2C(=O)c3ccccc3C2=O)cc1` the activity change (PNC), negative = inhibition was inactive: 30.3%. In the case of `CC1(C)CC2CC(C)(CN2C(=O)COC(=O)Cn2[nH]c(=O)c3ccccc3c2=O)C1` (stereo not given), the activity change (PNC), negative = inhibition was active: -88%. For `CCCOC(=O)NC1CCS(=O)(=O)C1` (stereo not given), the activity change (PNC), negative = inhibition was inconclusive: -44.3%. With `CCC(=O)Nc1nc(C)c(C(=O)NC2CCCCC2)s1` the activity change (PNC), negative = inhibition was inconclusive: -74.4%. For `Cc1cccc2cc(C#N)c(NCCNC(=O)NC3CCCCC3)nc12`, the activity change (PNC), negative = inhibition was inconclusive: -64.8%. In the case of `CCOC(=O)C1CCCN(C(=O)c2ccc(CS(=O)(=O)Cc3ccccc3C)o2)C1` (stereo not given), the activity change (PNC), negative = inhibition was inconclusive: -34.6%. In the case of `CN(Cc1ccccc1)Cc1nc2c([nH]1)c(=O)n(C)c(=O)n2C`, the activity change (PNC), negative = inhibition was active: -100%. With `COc1cccc(C(=O)CN2CCN(S(=O)(=O)c3cccc([N+](=O)[O-])c3)CC2)c1` the activity change (PNC), negative = inhibition was inactive: 1.76%. In the case of `CN(C)S(=O)(=O)c1ccc(N2CCCC2)c(C(=O)NC(c2ccccc2)c2ccccc2)c1`, the activity change (PNC), negative = inhibition was inconclusive: -44.5%. In the case of `Cc1ccc(C(=O)N(CN2CCCC2=O)c2ccc(F)cc2)cc1C`, the activity change (PNC), negative = inhibition was inconclusive: -34.5%. With `O=C(c1cc2ncc(Br)cn2n1)N1CCOCC1` the activity change (PNC), negative = inhibition was inactive: -5.13%. For `CCOC(=O)N1CCN(c2c(-c3ccc(C)cc3)c(=O)c2=O)CC1`, the activity change (PNC), negative = inhibition was active: -100%. With `Cn1ncc2c(Nc3ccc(-c4ccccc4)cc3)ncnc21` the activity change (PNC), negative = inhibition was active: -81.6%. In the case of `COc1ccc(NC(=O)C2C3C=CC(C3)C2C(=O)NCc2ccco2)cc1` (stereo not given), the activity change (PNC), negative = inhibition was inactive: 10.8%. With `COC(=O)c1sc2nc(C)cc(-c3ccccc3)c2c1N` the activity change (PNC), negative = inhibition was inconclusive: -37.1%. For `Cc1ccc(S(=O)(=O)Cc2ccc(C(=O)NCc3ccc4c(c3)OCO4)o2)cc1`, the activity change (PNC), negative = inhibition was active: -107%. With `Cc1ccccc1NC(=O)CCN1C(=O)CSC1=O` the activity change (PNC), negative = inhibition was inconclusive: -30.5%. In the case of `CC(C)NC(=O)NC(=O)COc1c(F)c(F)cc(F)c1F`, the activity change (PNC), negative = inhibition was inconclusive: -56.9%. In the case of `COc1cc2[nH]c(=O)n(CCC(=O)NCCC(C)C)c(=O)c2cc1OC`, the activity change (PNC), negative = inhibition was inconclusive: -37.7%. With `O=C(Cn1cnc([N+](=O)[O-])n1)N/N=C/c1ccc2ccccc2c1` the activity change (PNC), negative = inhibition was inconclusive: -30.8%. For `O=C(Nc1sc2c(c1C(=O)O)CCCCC2)c1ccco1`, the activity change (PNC), negative = inhibition was inconclusive: -35.3%. In the case of `COc1ccc(CCNC(=O)CSc2nnc(CNC(=O)c3ccccc3F)o2)cc1OC`, the activity change (PNC), negative = inhibition was inconclusive: -30.3%. With `CCOC(=O)c1sc(NC(=O)c2cccs2)nc1C` the activity change (PNC), negative = inhibition was inconclusive: -34.1%. In the case of `COc1ccc(C2CC(C(F)(F)F)n3ncc(C(=O)NCC4CCCO4)c3N2)cc1OC` (stereo not given), the activity change (PNC), negative = inhibition was inconclusive: -67.5%. In the case of `O=C(O)c1ccc(COc2ccccc2/C=C2/NC(=O)N(c3cccc(Cl)c3)C2=O)cc1`, the activity change (PNC), negative = inhibition was inconclusive: -51.2%. In the case of `COc1ccc(OC)c(C2C(C#N)=C(N)Oc3c2c(C)nn3-c2cccc(Cl)c2)c1` (stereo not given), the activity change (PNC), negative = inhibition was inactive: -15.9%. With `Cc1cc(C(=O)COc2ccccc2[N+](=O)[O-])c(C)n1-c1cccc(S(=O)(=O)N2CCOCC2)c1` the activity change (PNC), negative = inhibition was inactive: 101%. With `Fc1cccc(Cl)c1Cn1nnc2c(N3CCC4(CC3)OCCO4)ncnc21` the activity change (PNC), negative = inhibition was inconclusive: -71%. In the case of `Cc1onc(-c2ccccc2Cl)c1C(=O)Nc1nc2c(s1)CCCC2`, the activity change (PNC), negative = inhibition was inconclusive: -36.1%. In the case of `Cc1ccc(S(=O)(=O)N2CCOCC2)cc1C(=O)Nc1c(C)n(C)n(-c2ccccc2)c1=O`, the activity change (PNC), negative = inhibition was active: -100%. In the case of `CCN(CC)c1ccc(/C=C2/SC(=O)N(C(C)C)C2=O)o1`, the activity change (PNC), negative = inhibition was inconclusive: -50.9%. With `Cn1c(=O)n(CCc2ccccc2)c(=O)c2c1nc1n2CCCN1Cc1ccccc1` the activity change (PNC), negative = inhibition was inactive: 22.3%. With `COC(=O)Cn1cnc2c(nnn2Cc2ccc(Cl)cc2)c1=O` the activity change (PNC), negative = inhibition was inconclusive: -44%. With `CC(C)(C)c1ccc(CSc2nnc(-c3ccccn3)n2Cc2ccco2)cc1` the activity change (PNC), negative = inhibition was inconclusive: -47.9%. For `Cc1ccc(C)c(Oc2coc3cc(OCC(=O)Nc4ccccc4C(C)C)ccc3c2=O)c1`, the activity change (PNC), negative = inhibition was inactive: 0.514%. For `CCOc1ccc(Br)cc1S(=O)(=O)Nc1ccc(C(=O)OCC(=O)N(C)c2ccccc2)cc1`, the activity change (PNC), negative = inhibition was inconclusive: -58.2%. For `CC(C)CC(=O)c1c[nH]c(C(=O)NCCCN2CCOCC2)c1`, the activity change (PNC), negative = inhibition was inconclusive: -34.8%. For `CCCN(CC(=O)Nc1ccc(Cl)cc1Cl)C(=O)/C=C/c1ccco1`, the activity change (PNC), negative = inhibition was inconclusive: -46.7%. With `Cc1noc(C)c1CSc1ccc2ccccc2n1` the activity change (PNC), negative = inhibition was active: -119%. With `O=C(NC1CCCCC1)N1CCN(c2ncccn2)CC1` the activity change (PNC), negative = inhibition was active: -83.4%. For `Cc1ccc(S(=O)(=O)Nc2cc(C(=O)O)ccc2N2CCCCC2)cc1`, the activity change (PNC), negative = inhibition was inconclusive: -61.9%. With `Cc1cc(C)n(-c2nc3ccccc3c(=O)n2OCC(=O)N(C)C)n1` the activity change (PNC), negative = inhibition was inconclusive: -67.1%. For `CN(C)c1ccc(/C=N/NC(=O)C2COc3ccccc3O2)o1` (stereo not given), the activity change (PNC), negative = inhibition was inactive: 12.8%. In the case of `Cc1ccc2oc(-c3cccc(NC(=S)NC(=O)c4cccs4)c3)nc2c1`, the activity change (PNC), negative = inhibition was inconclusive: -66.3%. For `CCN(CC(F)(F)C(F)F)S(=O)(=O)c1ccc(NC(=O)OC)cc1`, the activity change (PNC), negative = inhibition was inconclusive: -30.4%.
